According to patent US20180250426A1:
Results are given in words; binding and its absence hold for the method and conditions named. Some entries that bind do so weakly or less than the wild type.

By UniProt entry, the sequences of proteins in these tests, tags left out.
UniProt P30550: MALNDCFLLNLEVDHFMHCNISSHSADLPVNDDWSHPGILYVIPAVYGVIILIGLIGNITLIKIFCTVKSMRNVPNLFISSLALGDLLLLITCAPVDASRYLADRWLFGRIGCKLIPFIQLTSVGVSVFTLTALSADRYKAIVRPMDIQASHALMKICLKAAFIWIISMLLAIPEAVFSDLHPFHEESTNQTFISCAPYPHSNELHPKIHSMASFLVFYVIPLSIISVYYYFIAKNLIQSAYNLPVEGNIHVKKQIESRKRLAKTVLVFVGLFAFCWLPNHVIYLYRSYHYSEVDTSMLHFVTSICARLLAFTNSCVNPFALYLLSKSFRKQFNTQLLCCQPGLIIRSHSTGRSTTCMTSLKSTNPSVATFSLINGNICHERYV

Target: GRPR (GRP receptor) (UniProt P30550)
Assay: confocal immunofluorescence with a CD2 antibody and Alexa Fluor 488 on GRPR-high PC-3 and DU145 cells at 37 °C; GRPR-low H441 cells as control

B1: CA1-CD2-Bom (designed binder)
single chain: RDSGTVWGALGHGIELNIPNFQMTDDIDEVRWERGSTLVAEFKRKMKPFLKSGAFEIDANGDLDIKNLTRDDSGTYNVTVYSTNGTRILNKALDLRILEGGSGGSGNQWAVGHLM
B1 was tested, and the binding was “binds”.
